The numbers were not newly measured in patent US20020143065A1, “Developing a delivery system for multi-pharmaceutical active materials at various release rates” (priority 2000, published 2002), which cites them from elsewhere.

The test system of the data set is noradrenaline reassimilation.

On to `COc1cccc(C2(O)CCCCC2CN(C)C)c1` (single isomer, unassigned; (-)) [(−) enantiomer, (−) tramadol], for which the “inhibition of noradrenaline reassimilation” value is listed as “significant inhibition”.
